Experimental data reported in PMC4838231.
These are yes or no findings as the source states them, for the method shown. Some entries that bind do so weakly or less than the wild type. Sequences can lack the tags named with a protein.

Legend:
[1] = biological target: T1, Kin2-C9Δ42 (TD2 domain of Kin2 without the last 42 a.a.), Gal4 DNA-binding domain fusion (S. cerevisiae) (UniProt P13186); test: two-hybrid; directed assay: pJ69-4α with pGBDU-C1-based baits mated with pJ69-4A with pOAD- or pGAD-based preys; growth of diploids on SC-Leu-Ura-His (with 3 mM 3-AT for Bmh1) or SC-Leu-Ura-Ade at 30°C for 3 days
T1 sequence: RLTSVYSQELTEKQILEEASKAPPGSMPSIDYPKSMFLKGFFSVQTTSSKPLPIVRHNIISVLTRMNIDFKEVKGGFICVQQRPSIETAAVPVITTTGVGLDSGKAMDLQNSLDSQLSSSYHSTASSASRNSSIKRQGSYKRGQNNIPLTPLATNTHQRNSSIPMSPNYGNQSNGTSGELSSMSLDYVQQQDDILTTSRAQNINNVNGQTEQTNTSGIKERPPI

[2] = biological target: T2, Kin2-C6Δ42 (a.a. 780–1105), Gal4 DNA-binding domain fusion (S. cerevisiae) (UniProt P13186); test: as above
T2 sequence: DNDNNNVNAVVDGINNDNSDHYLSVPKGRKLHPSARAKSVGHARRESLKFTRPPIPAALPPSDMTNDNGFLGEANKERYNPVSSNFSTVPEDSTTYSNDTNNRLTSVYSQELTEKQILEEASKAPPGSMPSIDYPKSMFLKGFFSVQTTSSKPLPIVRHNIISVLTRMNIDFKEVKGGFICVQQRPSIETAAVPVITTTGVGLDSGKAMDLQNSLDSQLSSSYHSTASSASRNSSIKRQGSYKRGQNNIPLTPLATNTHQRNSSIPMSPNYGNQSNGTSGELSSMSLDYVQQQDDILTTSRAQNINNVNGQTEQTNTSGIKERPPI

[3] = biological target: T3, Kin2-Δ42 (Gal4 DNA-binding domain fusion from pGBDU-KIN2-Δ42) (S. cerevisiae) (UniProt P13186); test: two-hybrid; library screens in yeast strain pJ69-4A or pJ69-4α with a pOAD-cDNA prey library; baits in pGBDU (Gal4 DBD); selection on SC-Leu-Ura-His with 3 mM 3-AT at 30°C, then SC-Leu-Ura-Ade; inserts sequenced
T3 sequence: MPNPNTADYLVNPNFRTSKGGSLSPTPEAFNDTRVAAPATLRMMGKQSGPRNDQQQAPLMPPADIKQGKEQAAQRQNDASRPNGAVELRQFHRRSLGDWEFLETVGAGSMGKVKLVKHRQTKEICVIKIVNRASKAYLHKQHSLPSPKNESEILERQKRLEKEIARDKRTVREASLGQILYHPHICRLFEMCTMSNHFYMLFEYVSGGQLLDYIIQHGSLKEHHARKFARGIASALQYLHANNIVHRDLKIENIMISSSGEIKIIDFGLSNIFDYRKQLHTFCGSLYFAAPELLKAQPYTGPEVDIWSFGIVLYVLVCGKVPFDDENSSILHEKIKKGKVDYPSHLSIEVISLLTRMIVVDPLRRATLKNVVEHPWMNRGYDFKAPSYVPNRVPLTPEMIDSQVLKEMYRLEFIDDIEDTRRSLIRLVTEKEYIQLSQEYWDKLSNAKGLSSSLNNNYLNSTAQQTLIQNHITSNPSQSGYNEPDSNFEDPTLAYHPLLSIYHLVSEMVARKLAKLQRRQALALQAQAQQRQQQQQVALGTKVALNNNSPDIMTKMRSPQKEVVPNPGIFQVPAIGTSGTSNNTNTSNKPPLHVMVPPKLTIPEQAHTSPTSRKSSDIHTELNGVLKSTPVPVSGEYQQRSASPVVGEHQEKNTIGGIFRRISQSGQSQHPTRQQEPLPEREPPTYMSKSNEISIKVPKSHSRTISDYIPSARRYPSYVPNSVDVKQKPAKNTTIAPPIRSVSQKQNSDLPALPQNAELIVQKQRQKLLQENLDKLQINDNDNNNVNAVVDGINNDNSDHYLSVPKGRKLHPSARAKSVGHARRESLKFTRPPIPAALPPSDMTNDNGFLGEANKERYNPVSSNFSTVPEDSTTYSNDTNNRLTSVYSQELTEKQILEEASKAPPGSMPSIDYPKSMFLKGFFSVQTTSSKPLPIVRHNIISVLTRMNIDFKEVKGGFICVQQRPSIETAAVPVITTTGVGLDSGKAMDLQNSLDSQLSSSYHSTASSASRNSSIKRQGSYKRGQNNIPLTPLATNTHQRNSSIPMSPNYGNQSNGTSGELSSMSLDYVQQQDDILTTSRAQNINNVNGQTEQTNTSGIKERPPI

binding [2]: binds | binding [3]: binds
B1: Cdc11^72-415 (N-terminally truncated Cdc11), Gal4 activation domain fusion from pOAD (domain or fragment, UniProt P32458 72-415)
chain: TVELEDDEGVKIQLNIIDTPGFGDSLDNSPSFEIISDYIRHQYDEILLEESRVRRNPRFKDGRVHCCLYLINPTGHGLKEIDVEFIRQLGSLVNIIPVISKSDSLTRDELKLNKKLIMEDIDRWNLPIYNFPFDEDEISDEDYETNMYLRTLLPFAIIGSNEVYEMGGDVGTIRGRKYPWGILDVEDSSISDFVILRNALLISHLHDLKNYTHEILYERYRTEALSGESVAAESIRPNLTKLNGSSSSSTTTRRNTNPFKQSNNINNDVLNPASDMHGQSTGENNETYMTREEQIRLEEERLKAFEERVQQELLLKRQELLQREKELREIEARLEKEAKIKQEE
binding [1]: no binding
